Data: article PMC11210774, “Critical domains for NACC2-NTRK2 fusion protein activation” (PLOS ONE, 2024)
No constants are given. Whether binding was seen depends on the method and setting.

Target: Nucleus Accumbens-associated protein 2 (NACC2), wild type (human) (UniProt Q96BF6)
Assay: condition: only with sample buffer containing β-mercaptoethanol; reducing SDS-PAGE and immunoblot of multimers; same HEK293T lysates in E1A buffer as in the non-reducing assay, prepared in reducing sample buffer (10% β-mercaptoethanol, 2% SDS); immunoblot for NACC2

binding: no binding
B1: Nucleus Accumbens-associated protein 2 (NACC2), wild type (natural protein, human, UniProt Q96BF6 1-587, looked up)
chain: MSQMLHIEIPNFGNTVLGCLNEQRLLGLYCDVSIVVKGQAFKAHRAVLAASSLYFRDLFSGNSKSAFELPGSVPPACFQQILSFCYTGRLTMTASEQLVVMYTAGFLQIQHIVERGTDLMFKVSSPHCDSQTAVIEDAGSEPQSPCNQLQPAAAAAAPYVVSPSVPIPLLTRVKHEAMELPPAGPGLAPKRPLETGPRDGVAVAAGAAVAAGTAPLKLPRVSYYGVPSLATLIPGIQQMPYPQGERTSPGASSLPTTDSPTSYHNEEDEEDDEAYDTMVEEQYGQMYIKASGSYAVQEKPEPVPLESRSCVLIRRDLVALPASLISQIGYRCHPKLYSEGDPGEKLELVAGSGVYITRGQLMNCHLCAGVKHKVLLRRLLATFFDRNTLANSCGTGIRSSTSDPSRKPLDSRVLNAVKLYCQNFAPSFKESEMNVIAADMCTNARRVRKRWLPKIKSMLPEGVEMYRTVMGSAAASVPLDPEFPPAAAQVFEQRIYAERRGDAATIVALRTDAVNVDLSAAANPAFDAGEEVDGAGSVIQEVAAPEPLPADGQSPPQPFEQGGGGPSRPQTPAAAARRPEGTYAGTL
notes: NACC2, human, wild type; gene bought from Origene and subcloned into pCDNA3 by EcoRI and XbaI; Expressed alone (multimerization assay) or together with the fusion proteins (co-IP); also called wild-type NACC2; native NACC2; source: HEK293T, transfected (pCDNA3, CaCl2), in lysate (E1A buffer)
